Out of some 300,000 compounds screened, about 5,400 (1.8%) were called active. This list was built around the results that the source calls inconclusive (neither active nor inactive); the mix of calls is not that of the screen. Calls come from the whole dose curve; tested in HEK293 cells. Where the call is inconclusive, the potency comes from a doubtful curve fit.
Assay: qHTS for inhibitors of binding or entry into cells for Marburg Virus
Conditions: Marburg virus pseudotyped entry inhibition, cell reporter; activity change, negative = inhibition: at 37.8 µM (top of the series) unless noted
With O=C(N/N=C/c1cccnc1)c1ccccc1OCc1cccc(Br)c1 the Potency was inconclusive: 35.5 µM [inhibitor, single point]. In the case of CN(CCC1CCOCC1)C(=O)CC1C(=O)NCCN1C/C=C/c1ccccc1 (centres undefined), the “activity change, negative = inhibition” value is reported as inactive: 24.5% [at 46.1 µM]. With c1ccc(CNc2nc3ccccc3[nH]2)cc1 the Potency was inconclusive: 29.1 µM [inhibitor, single point]. With O=C(c1cc2nc(-c3ccccc3)cc(-c3ccccc3)n2n1)N1CCN(C(=O)c2ccco2)CC1 the Potency was inconclusive: 35.5 µM [inhibitor, single point]. For O=C(NCCc1ccccc1)C(=O)NCc1ccncc1, the “activity change, negative = inhibition” value was inactive: 6.85%. With CN1CCN(CC(=O)C23CC4CC(CC(C4)C2)C3)CC1 the Potency was inconclusive: 4.11 µM [activator, partial curve, poor fit]. In the case of CC1=C(C(=O)OCc2ccccc2)C(c2ccc(C(C)(C)C)cc2)NC(=O)N1CCCCCC(=O)O (centres undefined), the “activity change, negative = inhibition” value is reported as inactive: 9.55%. With COc1ccc(CN2CCCC(CNC(=O)c3ccc(F)cc3)C2)cc1OC (centres undefined) the Potency was inconclusive: 35.5 µM [activator, single point]. For COc1cccc(C2C(C(=O)NCc3ccccc3)=C(C)Nc3ncnn32)c1 (centres undefined), the Potency was inconclusive: 0.259 µM [activator, single point]. With O=C(CSc1nnc(-c2ccco2)n1Cc1ccccc1)c1ccc(F)cc1 the “activity change, negative = inhibition” value was inactive: -0.585%. For COc1ccc(C(=O)C[n+]2cccc3cc(C)ccc32)cc1, the Potency was inconclusive: 25.1 µM [inhibitor, single point]. With COc1ccc(-c2csc(NC(=O)C(CC(=O)O)N3CCOCC3)n2)cc1 (centres undefined) the “activity change, negative = inhibition” value was inactive: 16.7% [at 46.1 µM]. In the case of CCN1CCN(C(=O)c2ccc(CN(c3ccccc3)S(=O)(=O)c3ccccc3)cc2)CC1, the Potency is reported as inconclusive: 5.62 µM [activator, single point]. In the case of COc1ccc(-c2nn3c(C4CCCCC4)nnc3s2)cc1OC, the “activity change, negative = inhibition” value is reported as inactive: -12.2%. With Cc1ccccc1N1C(=O)C(Cc2ccc(F)cc2)S/C1=C(\C#N)C(N)=O (centres undefined) the Potency was inconclusive: 3.55 µM [activator, single point]. With O=S(=O)(NCC(c1ccc2c(c1)OCO2)N1CCOCC1)c1ccc(Br)cc1 (centres undefined) the Potency was inconclusive: 1.78 µM [inhibitor, partial curve, poor fit]. With Cn1cccc1C1C(C#N)=C(N)OC2=C1C(=O)CC(C)(C)C2 (centres undefined) the Potency was inconclusive: 6.31 µM [inhibitor, single point]. In the case of CC(=O)Oc1ccc(N2C(=O)C3C4C=CC(O4)C3C2=O)cc1 (centres undefined), the “activity change, negative = inhibition” value is reported as inactive: 23%. With COC(=O)/C=C1/S/C(=N/NC(=O)c2ccccc2OC)NC1=O the “activity change, negative = inhibition” value was inactive: -6.25% [at 46.1 µM]. For COc1cc2c(cc1NC(=S)NC(=O)/C=C/c1ccco1)oc1ccccc12, the Potency was inconclusive: 0.58 µM [inhibitor, partial curve, poor fit]. With COC(=O)c1ccc(NC(=O)CCN2CCN(CCC(=O)Nc3ccc(C(=O)OC)cc3)CC2)cc1 the Potency was inconclusive: 0.794 µM [activator, single point]. With COc1ccc(OCC(=O)NC2CCSc3ccccc32)cc1 (centres undefined) the Potency was inconclusive: 14.1 µM [inhibitor, single point]. In the case of Cc1nc2ccccc2cc1OCc1ccc(Cl)cc1, the Potency is reported as inconclusive: 11.6 µM [inhibitor, partial curve, poor fit]. For COc1cc(C)c(COc2ncnc3ccccc23)cc1OC, the Potency was inconclusive: 22.4 µM [inhibitor, partial curve, poor fit]. With O=[N+]([O-])c1ccc(CSC2=NCCS2)cc1 the “activity change, negative = inhibition” value was inactive: 2.05% [at 46.1 µM]. With CC(=O)Oc1ccc(N2C(=O)C3C(C2=O)C(C(=O)c2ccc(Cl)cc2)N2CCCC32)cc1 (centres undefined) the “activity change, negative = inhibition” value was inactive: 13.2% [at 46.1 µM]. For Cc1ccc2nc(N(CCCN(C)C)C(=O)c3ccc(S(=O)(=O)N4CCCCCC4)cc3)sc2c1, the Potency was inconclusive: 35.5 µM [inhibitor, single point]. In the case of CN1CCN(c2ccc(S(=O)(=O)N3CCCCC3)cc2NC(=O)Cc2ccc(Cl)cc2)CC1, the Potency is reported as inconclusive: 1.26 µM [activator, single point]. With c1ccc2c(c1)oc1c(Nc3ccc(CN4CCOCC4)cc3)ncnc12 the Potency was inconclusive: 15.8 µM [inhibitor, single point]. With CCc1cccc(NC(=O)CCc2nc3cccnc3n2Cc2ccc(OC)cc2)c1 the “activity change, negative = inhibition” value was inactive: 6.34% [at 46.1 µM]. With Cc1nc2c(N=Nc3ccccc3F)c(N)nn2c(N)c1C#N the Potency was inconclusive: 35.5 µM [activator, single point]. For COCCN(Cc1ccccc1)C(=S)Nc1ccc(OC(F)F)cc1, the Potency was inconclusive: 11.2 µM [inhibitor, partial curve, poor fit]. In the case of CCn1c2ccccc2n2c(=O)c(=O)n(CC(=O)Nc3ccc(C(C)C)cc3)nc12, the Potency is reported as inconclusive: 20 µM [activator, single point]. For COc1ccc2nc(SC(C)C(=O)NC3CCCC3)[nH]c2c1 (centres undefined), the “activity change, negative = inhibition” value was inactive: 9.5% [at 46.1 µM]. With Cc1ccc(OCCN2C(=O)c3ccccc3C2=O)c([N+](=O)[O-])c1 the Potency was inconclusive: 11.2 µM [activator, partial curve, poor fit]. In the case of O=C(OC1CCN(c2ncc(C(F)(F)F)cc2Cl)CC1)c1ccc(Cl)cc1, the “activity change, negative = inhibition” value is reported as inactive: -0.871%. For COc1ccc(C(=O)N/N=C/c2ccc(OC(=O)c3ccccc3)cc2)cc1, the “activity change, negative = inhibition” value was inactive: 0.0472%. In the case of O=S(=O)([N-]c1nc2ccccc2nc1-[n+]1ccc(Cc2ccccc2)cc1)c1ccc(Br)s1, the Potency is reported as inconclusive: 35.5 µM [inhibitor, single point]. With COc1ccc(CCNc2oc(Cc3ccccc3)nc2C#N)cc1OC the Potency was inconclusive: 12.6 µM [inhibitor, partial curve]. With Cc1ccc(C)c(NC(=S)N2CCN(S(C)(=O)=O)CC2)c1 the “activity change, negative = inhibition” value was inactive: 1.52% [at 46.1 µM]. With Cc1cc(C)c(S(=O)(=O)c2ccccc2)c(OC(=O)c2c(F)cccc2F)n1 the “activity change, negative = inhibition” value was inactive: -5.97% [at 46.1 µM]. In the case of CCOc1ccc(OCc2ccc(C(=O)NN=Cc3ccc[nH]3)cc2)cc1, the Potency is reported as active: 0.282 µM. With COc1ccc(NC(=O)[C@H]2O[C@@H]3OC(C)(C)O[C@@H]3[C@H]3OC(C)(C)O[C@H]32)c(OC)c1 the Potency was inconclusive: 0.501 µM [activator, full curve, poor fit]. With CCC(C(=O)Nc1nnc(-c2ccco2)s1)c1ccccc1 (centres undefined) the “activity change, negative = inhibition” value was inactive: -4.56% [at 46.1 µM]. For C#CCOCCOCCOCCNc1nc(N2CCN(C(=O)[C@H](CCCCN)n3cc(CCCC)nn3)CC2)nc(N2CCN(C(=O)[C@H](Cc3ccc(O)cc3)n3cc(CCO)nn3)CC2)n1, the “activity change, negative = inhibition” value was inactive: 11.1%. With CN(C)c1ccc(NC(=O)CN2CCc3ccccc3C2)cc1 the Potency was inconclusive: 6.31 µM [activator, single point]. With Cc1ccc2nc(-c3cccs3)c(Nc3c(C)cccc3C)n2c1 the Potency was active: 7.08 µM. In the case of COc1ccc(C)cc1NC(=O)C(Sc1nnc(-c2ccncc2)n1-c1ccc(Cl)cc1)c1ccccc1 (centres undefined), the Potency is reported as inconclusive: 10 µM [inhibitor, partial curve, poor fit]. For CC(C)(C)c1ccc(OCCCC(=O)NNC(=O)c2ccccc2O)cc1, the Potency was inconclusive: 35.5 µM [inhibitor, single point]. In the case of NC(=O)c1ccccc1N/C=C/C(=O)c1ccc(Cl)cc1, the Potency is reported as inconclusive: 4.47 µM [inhibitor, single point]. For CCC(CC)C(=O)Nc1ccc2nc(SCC(=O)N3CCCC3)sc2c1, the “activity change, negative = inhibition” value was inactive: 11% [at 46.1 µM]. With O=C(NC1CCN(Cc2ccccc2)CC1)c1cc(-c2ccccn2)nc2ccccc12 the Potency was inconclusive: 1.26 µM [inhibitor, partial curve, poor fit]. With O=C(Nc1ccc(-c2csnn2)cc1)C1CC1 the Potency was inconclusive: 35.5 µM [activator, single point]. For Clc1ccc(-c2nc(Cc3ccccc3Cl)no2)cc1, the “activity change, negative = inhibition” value was inactive: 4.46% [at 46.1 µM]. In the case of O=C(NN1CCCCC1)c1cccc(COc2ccc(Cl)cc2)c1, the Potency is reported as inconclusive: 0.562 µM [activator, single point]. For O=C(CSc1nc2cc(C(F)(F)F)ccc2n1Cc1ccccc1)NC1CCS(=O)(=O)C1 (centres undefined), the Potency was inconclusive: 1.26 µM [inhibitor, single point]. For Fc1cccc2sc(Nc3nc4c(F)cccc4s3)nc12, the Potency was inconclusive: 8.2 µM [activator, partial curve]. For O=C(CCCc1nc(-c2ccccc2)no1)Nc1cccnc1, the Potency was inconclusive: 4.11 µM [inhibitor, full curve, poor fit]. In the case of O=C(O)c1ccc(CSc2nc3ccc(NC(=O)c4ccccc4C(=O)O)cc3s2)cc1, the “activity change, negative = inhibition” value is reported as inactive: 1.07% [at 46.1 µM]. In the case of O=C(Nc1ccc2c(c1)OCCO2)N1CCOCC1, the “activity change, negative = inhibition” value is reported as inactive: -3.53% [at 46.1 µM]. In the case of Cc1ccc(C(=O)CCC(=O)O)cc1, the “activity change, negative = inhibition” value is reported as inactive: 1.24%. In the case of COc1cc(/C=C/C(=O)OCC(=O)NC(=O)NCc2ccco2)ccc1OC(F)F, the “activity change, negative = inhibition” value is reported as inactive: 9.24%. With C/C(=N\NC(=O)c1ccc(=O)[nH]n1)c1cccnc1 the Potency was inconclusive: 1.12 µM [inhibitor, partial curve, poor fit]. With N=c1n(CCO)c2ccccc2n1Cc1ccc(Cl)cc1 the Potency was inconclusive: 14.1 µM [inhibitor, partial curve, poor fit]. For CCn1c(=O)c2c3c(sc2n2cnnc12)CCC3, the Potency was inconclusive: 2.82 µM [activator, single point]. With CC(=O)C(N=Nc1ccccc1)(Sc1nnc(-c2ccccc2)n1-c1ccccc1)C(C)=O the Potency was inconclusive: 20.6 µM [inhibitor, single point]. In the case of O=C(COC(=O)c1cc(=O)[nH]c(=O)[nH]1)Nc1cccc(S(=O)(=O)N2CCCCC2)c1, the “activity change, negative = inhibition” value is reported as inactive: 19.9% [at 46.1 µM]. For COc1cc(NC(=O)CN2CCN(S(=O)(=O)c3ccc(C(C)C)cc3)CC2)cc(OC)c1, the Potency was inconclusive: 35.5 µM [inhibitor, single point]. For CCCCCCn1nc(C(=O)N(CCOC)c2c(N)n(CCCC)c(=O)[nH]c2=O)c2ccccc2c1=O, the Potency was inconclusive: 22.4 µM [inhibitor, single point].
% is set by controls: 0 for no effect and ±100 for the full control effect; potency is the fitted concentration of half-maximal effect.
